± gives the standard deviation of the averaged measurements. Most values lie at the floor of the assay. Slopes are relative: functional sequences can read slightly below zero.
test system: Saccharomyces cerevisiae PS128 hsf1 delta, HSF1(1-493) fusion; assay: growth estimate (transactivation domain function in HSF1 fusion, heat-shock survival) (a.u. (slope of normalised read count over time)); higher = stronger growth at 37°C, i.e. more transactivation activity; details: library: random library

Substance	growth estimate
LSYPESYPAVALAAVRRGVL	< -0.25
LTASRLTLKSVNEGLTCT	< -0.25
LTCNRFNLILARRIA	< -0.25
LTDHGGGRIRAVGTAVCHRL	< -0.25
LTDLGPSKQEYNRIHGRPVN	< -0.25
LTDR	< -0.25
LTESRWSHTP	< -0.25
LTEVPAVL	< -0.25
LTFNFSLPRPS	< -0.25
LTFTRLMGCADNCKESCVPP	< -0.25
LTFYVSDTFNGV	< -0.25
LTGIASRYDP	< -0.25
LTGNPPRNLRRVICLTPGVV	-0.231
LTGVPILHRLVH	< -0.25
LTHAGFAA	< -0.25
LTHCF	< -0.25
LTHHVVG	< -0.25
LTIAAIYVTTIKNYDINVPL	< -0.25
LTIDESRY	< -0.25
LTIGW	< -0.25
LTK	-0.2485 ± 0.0022
LTLHVRPLSRIRSTSSADSP	< -0.25
LTLPGVLLAAVSTGRRRGRA	< -0.25
LTLPLASASGGWKKRPKGGY	< -0.25
LTLPQREAGSVLDLDHRYPQ	< -0.25

Substance	growth estimate
LTLTALLLQPHPLALQMG	< -0.25
LTLYGPANLRCCLTPGDGAR	< -0.25
LTM	-0.247
LTNYHLYFHPSYKWALALLA	< -0.25
LTPQR	< -0.25
LTPRLTTYRESDLLREIKIV	< -0.25
LTPSK	< -0.25
LTPWC	< -0.25
LTQKWAKRGWLLRHGQSTYR	< -0.25
LTQVP	< -0.25
LTR	< -0.25
LTRARME	< -0.25
LTRFNRGSASLHSRLTSSDP	-0.183
LTRQSAESNDVLNF	-0.243
LTRREDITGGRVGVWGW	< -0.25
LTRRYCKSLLRPPRLLTLVS	< -0.25
LTSACSSYVFFSGPAMPITA	< -0.25
LTSHSIRQVDLVRVLTRSPR	< -0.25
LTSIRGVGLVITRVTMASSS	< -0.25
LTSLAVSRG	< -0.25
LTSLTWSAGILCKSG	< -0.25
LTSQGRSARDCPLQSFSTRF	< -0.25
LTSSTLCRSYAPGIDMRLAI	< -0.25
LTTARSDPEALA	< -0.25
LTTGSGPSA	< -0.25

Looked up one by one from the entries so far, 6 records:
Substance	growth estimate
LTM	-0.247
LTSACSSYVFFSGPAMPITA	< -0.25
LTRFNRGSASLHSRLTSSDP	-0.183
LTSLAVSRG	< -0.25
LTQKWAKRGWLLRHGQSTYR	< -0.25
LTSLTWSAGILCKSG	< -0.25

(further entries)

Substance	growth estimate
LTTGVTLILSIAGTSNAEPC	< -0.25
LTVLEAKHVGGSSYFLDMTP	< -0.25
LTVSFGHDVGRPKGYGSQD	-0.25
LTWCISVVV	< -0.25
LTWSTVSPR	< -0.25
LTWWAQVLQNL	< -0.25
LTYASCMAAMEF	< -0.25
LTYAVVPA	< -0.25
LTYGTRTPVLQAVR	< -0.25
LVAHSELGFVCGMFNGPATK	< -0.25
LVALDSSNRANHQGGSFCCR	< -0.25
LVANP	< -0.25
LVANSAQGSGRNGIGGVRMT	< -0.25
LVASST	< -0.25
LVCHVKRWLHVECPKKFGPA	< -0.25
LVCRRPGNCGPDGRFGTSSH	< -0.25
LVDDRSTNAYN	< -0.25
LVDFRDLKAVAM	< -0.25
LVDLATGHRYSRNCRMQGNQ	< -0.25
LVDRIVCLRATRMVPYQLSG	< -0.25
LVEDTKAKAPAARMHCQTGC	< -0.25
LVGFCVDWR	< -0.25
LVGGQCTSTEAPSDGLIMSA	< -0.25
LVGLARLLWGVVRSIPHHLT	< -0.25
LVGMREPVGVCSVEWQRKDT	< -0.25

Substance	growth estimate
LVHGE	< -0.25
LVHKAQEILMGLTSRLPSTA	< -0.25
LVHQSV	< -0.25
LVHRGRGRIIAIDYPLVAST	< -0.25
LVHRNG	< -0.25
LVIIYFETSADIGTNTVIAM	< -0.25
LVIQREQ	< -0.25
LVIYSATPFADRKVNPHDIF	< -0.25
LVKELLQVNRGDRALQLLKA	< -0.25
LVKPLKLGYPFDLRHYAQYC	< -0.25
LVKVIVIDQFISNTKMSVMG	< -0.25
LVLENALFILPV	< -0.25
LVLEYT	< -0.25
LVLFPSDFSYA	< -0.25
LVLFYVQAARTFTVTAWVGL	< -0.25
LVLGITSPCRVAVACCKRSV	< -0.25
LVLPSRHRGEIRRSLIMVLI	< -0.25
LVLPVRGALGNGGWSKLSTI	-0.245
LVLRSFLVFNSQIPAIV	< -0.25
LVNEVEPFGLGLMSHGYGGV	0.0823
LVNRRLFALRIHRMDAPQGA	< -0.25
LVPKGGR	< -0.25
LVPPIIYDI	< -0.25
LVPRITVLGR	< -0.25
LVPTHPGTVRATPYWLVHRN	< -0.25

— the supplement of paper PMC5949888
